# Measurements taken from patent US7605133.
# Results are given in words; binding and its absence hold for the method and conditions named. Some entries that bind do so weakly or less than the wild type.
# Target: C-terminal portion of α-synuclein (approx. amino acids 113-140) (human) (UniProt P37840)
# Experiment: phage display selection
row,Binder,binding
1,HYAKNPI,binds
2,THRLPSR,binds
3,RRRGMAI,binds

# Results, then the binder that gave them:
row,binding,Binder
1,binds,ATINKSL
2,binds,WRQTRKD
3,binds,TKHGPRK

# Target: NAC portion of α-synuclein (approx. amino acids 61-87) (human) (UniProt P37840)
# Experiment: phage display selection
row,binding,Binder
1,binds,MMMMMRL
